From paper PMC6218562 come the findings set out here.

Sequences of proteins named here, by UniProt entry; tags and fusion partners are left off.
UniProt P04147: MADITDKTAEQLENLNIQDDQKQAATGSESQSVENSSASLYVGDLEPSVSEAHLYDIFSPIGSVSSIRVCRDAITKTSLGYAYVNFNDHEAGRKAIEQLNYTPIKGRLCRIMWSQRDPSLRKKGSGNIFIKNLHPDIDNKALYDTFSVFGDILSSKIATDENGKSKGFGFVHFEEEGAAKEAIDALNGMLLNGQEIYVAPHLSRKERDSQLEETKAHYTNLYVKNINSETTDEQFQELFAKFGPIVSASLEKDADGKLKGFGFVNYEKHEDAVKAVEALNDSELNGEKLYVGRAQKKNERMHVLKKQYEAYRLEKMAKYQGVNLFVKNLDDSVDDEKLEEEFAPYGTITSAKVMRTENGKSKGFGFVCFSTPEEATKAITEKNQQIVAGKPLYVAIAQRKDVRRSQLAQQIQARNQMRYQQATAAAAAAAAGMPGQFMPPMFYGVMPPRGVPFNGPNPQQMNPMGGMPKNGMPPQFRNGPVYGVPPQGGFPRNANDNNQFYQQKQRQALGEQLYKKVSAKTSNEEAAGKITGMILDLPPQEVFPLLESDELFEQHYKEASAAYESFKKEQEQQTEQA

Results are given in words; binding and its absence hold for the method and conditions named. For some of these results: In cells and extracts the contact can be indirect. Some binding calls cover weakened binding; strength is not graded here.

Experiment [1] concerns the target T1, Pbp1-1Q-TAP (S. cerevisiae) (UniProt P53297).
T1 sequence: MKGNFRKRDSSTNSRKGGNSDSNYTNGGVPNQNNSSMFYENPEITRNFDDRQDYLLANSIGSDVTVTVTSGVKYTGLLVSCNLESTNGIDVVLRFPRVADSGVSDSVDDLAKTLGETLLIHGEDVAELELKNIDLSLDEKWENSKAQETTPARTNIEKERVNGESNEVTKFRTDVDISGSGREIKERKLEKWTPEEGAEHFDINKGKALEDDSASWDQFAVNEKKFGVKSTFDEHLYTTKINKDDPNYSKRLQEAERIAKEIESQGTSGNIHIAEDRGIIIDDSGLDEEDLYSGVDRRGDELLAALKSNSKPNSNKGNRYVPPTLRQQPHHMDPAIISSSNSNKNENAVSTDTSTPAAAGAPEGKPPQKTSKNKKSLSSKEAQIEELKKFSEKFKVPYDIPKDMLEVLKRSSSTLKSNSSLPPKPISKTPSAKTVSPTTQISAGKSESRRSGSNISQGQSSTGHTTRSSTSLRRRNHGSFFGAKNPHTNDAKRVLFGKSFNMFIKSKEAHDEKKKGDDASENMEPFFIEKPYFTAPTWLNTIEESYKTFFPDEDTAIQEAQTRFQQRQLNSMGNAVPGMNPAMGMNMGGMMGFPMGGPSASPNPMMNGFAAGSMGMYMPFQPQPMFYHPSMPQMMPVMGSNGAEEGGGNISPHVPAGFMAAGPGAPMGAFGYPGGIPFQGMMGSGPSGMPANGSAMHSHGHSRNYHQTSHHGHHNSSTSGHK
As to the kind of experiment: co-IP; TAP-tagged Pbp1 forms held on IgG sepharose 6 fast-flow beads from cleared yeast lysates, 4 °C, 2 h; lysis buffer 50 mM HEPES KOH pH 7.5, 150 mM NaCl, 10% glycerol, 0.5% NP-40, 1 mM EDTA; western blot of the partners.

Experiment [2] concerns the target T2, Pbp1-1Q-TAP (S. cerevisiae), P53297.
T2 chain: T1 sequence
As to the kind of experiment: semi-denaturing detergent agarose gel electrophoresis (SDD-AGE); cleared yeast lysates on a 1.5% agarose gel with 0.1% SDS, 4 °C, 30 V, ~18 h, then western blot; cells with Pbp1 1Q, 5Q, 15Q, 30Q or 40Q, rad27Δ, with or without Hsp104 over-expression or Trf4. Particulars: remark: other sources report otherwise. On the technique in general: Immunoblotting shows a protein as a band on a membrane.

On to Pab1 (from UniProt P04147 1-577), for which the binding result in experiment [1] is given as “binds”.

B1: Lsm12 (protein, UniProt P38828 1-187)
chain: MSVSLEQTLGFRIKVTNVLDVVTEGRLYSFNSSNNTLTIQTTKKNQSPQNFKVIKCTFIKHLEVIGDKPSFNSFKKQQIKPSYVNVERVEKLLKESVIASKKKELLRGKGVSAEGQFIFDQIFKTIGDTKWVAKDIIILDDVKVQPPYKVEDIKVLHEGSNQSITLIQRIVERSWEQLEQDDGRKGG
On to B1, for which the binding result in experiment [1] was “binds”.

B2: Pbp4 (protein, UniProt Q07362 1-185)
chain: MTTTSTTSVDGRTSSTLKATLSASGPNSNGPTPAVLPQKPKLTGWAQAAAKALPRQQQQQQQARKDDSVAVQPANTKTKTIASTAPPANIKGSSTANGSSTNKKFKRANKQPYNREEVRSYMHKLFQSYTAGEKSHSMKTYKQVLSETASGRVSTATDWGTVSSSKNKNKKYGCLSDIAKVLRNQ
Regarding B2, the binding entry in experiment [1] is “binds”.

B3: Pbp1-1Q-TAP, P53297 1-722 (protein)
chain: T1 sequence
Take B3: in experiment [2], the binding entry is given as “no binding”.
